Laboratory results taken from publication PMC5008018.
These are yes or no findings as the source states them, for the method shown. In cells and extracts the contact can be indirect. Some entries that bind do so weakly or less than the wild type. Sequences can lack the tags named with a protein.

What was measured:
[1] = target: HA-tagged parkin-K349R/K369R mutant (2KR) (human) (UniProt O60260); test: co-IP; HEK293 cells transfected with HA-parkin-WT or HA-parkin-2KR and FLAG-HERC5, all samples also with UBE1L and Myc-UbcH8; lysate immunoprecipitated with anti-HA, blotted with anti-HERC5 or anti-HA
[2] = target: HA-tagged human parkin, wild type, full length (human) (UniProt O60260); test: as above
[3] = target: HA-tagged human parkin, wild type, full length (human) (UniProt O60260); test: co-IP; HEK293 cells co-transfected with HA-parkin, FLAG-HERC5 (WT or C994A), FLAG-ISG15-WT, UBE1L and Myc-UbcH8; lysate in 1% Nonidet P-40 buffer (50 mM Tris pH 7.4, 150 mM NaCl, 10% glycerol); immunoprecipitated with anti-HA overnight at 4°C, blotted with anti-HERC5, anti-HA or anti-FLAG

Measured: binding

B1: FLAG-tagged wild-type HERC5 (enzyme, UniProt Q9UII4 1-1024)
chain: MERRSRRKSRRNGRSTAGKAAATQPAKSPGAQLWLFPSAAGLHRALLRRVEVTRQLCCSPGRLAVLERGGAGVQVHQLLAGSGGARTPKCIKLGKNMKIHSVDQGAEHMLILSSDGKPFEYDNYSMKHLRFESILQEKKIIQITCGDYHSLALSKGGELFAWGQNLHGQLGVGRKFPSTTTPQIVEHLAGVPLAQISAGEAHSMALSMSGNIYSWGKNECGQLGLGHTESKDDPSLIEGLDNQKVEFVACGGSHSALLTQDGLLFTFGAGKHGQLGHNSTQNELRPCLVAELVGYRVTQIACGRWHTLAYVSDLGKVFSFGSGKDGQLGNGGTRDQLMPLPVKVSSSEELKLESHTSEKELIMIAGGNQSILLWIKKENSYVNLKRTIPTLNEGTVKRWIADVETKRWQSTKREIQEIFSSPACLTGSFLRKRRTTEMMPVYLDLNKARNIFKELTQKDWITNMITTCLKDNLLKRLPFHSPPQEALEIFFLLPECPMMHISNNWESLVVPFAKVVCKMSDQSSLVLEEYWATLQESTFSKLVQMFKTAVICQLDYWDESAEENGNVQALLEMLKKLHRVNQVKCQLPESIFQVDELLHRLNFFVEVCRRYLWKMTVDASENVQCCVIFSHFPFIFNNLSKIKLLHTDTLLKIESKKHKAYLRSAAIEEERESEFALRPTFDLTVRRNHLIEDVLNQLSQFENEDLRKELWVSFSGEIGYDLGGVKKEFFYCLFAEMIQPEYGMFMYPEGASCMWFPVKPKFEKKRYFFFGVLCGLSLFNCNVANLPFPLALFKKLLDQMPSLEDLKELSPDLGKNLQTLLDDEGDNFEEVFYIHFNVHWDRNDTNLIPNGSSITVNQTNKRDYVSKYINYIFNDSVKAVYEEFRRGFYKMCDEDIIKLFHPEELKDVIVGNTDYDWKTFEKNARYEPGYNSSHPTIVMFWKAFHKLTLEEKKKFLVFLTGTDRLQMKDLNNMKITFCCPESWNERDPIRALTCFSVLFLPKYSTMETVEEALQEAINNNRGFG
binds: all assays above
